Source: the supplement of paper PMC12067093, “Discovery and optimisation of a covalent ligand for TRIM25 and its application to targeted protein ubiquitination” (Chemical Science, 2025)
The list shows a part of the results.

Amino acid sequences for entries named in this document (tags omitted). A change or cut given only in a name is not applied to a line headed by its entry.
UniProt P07814: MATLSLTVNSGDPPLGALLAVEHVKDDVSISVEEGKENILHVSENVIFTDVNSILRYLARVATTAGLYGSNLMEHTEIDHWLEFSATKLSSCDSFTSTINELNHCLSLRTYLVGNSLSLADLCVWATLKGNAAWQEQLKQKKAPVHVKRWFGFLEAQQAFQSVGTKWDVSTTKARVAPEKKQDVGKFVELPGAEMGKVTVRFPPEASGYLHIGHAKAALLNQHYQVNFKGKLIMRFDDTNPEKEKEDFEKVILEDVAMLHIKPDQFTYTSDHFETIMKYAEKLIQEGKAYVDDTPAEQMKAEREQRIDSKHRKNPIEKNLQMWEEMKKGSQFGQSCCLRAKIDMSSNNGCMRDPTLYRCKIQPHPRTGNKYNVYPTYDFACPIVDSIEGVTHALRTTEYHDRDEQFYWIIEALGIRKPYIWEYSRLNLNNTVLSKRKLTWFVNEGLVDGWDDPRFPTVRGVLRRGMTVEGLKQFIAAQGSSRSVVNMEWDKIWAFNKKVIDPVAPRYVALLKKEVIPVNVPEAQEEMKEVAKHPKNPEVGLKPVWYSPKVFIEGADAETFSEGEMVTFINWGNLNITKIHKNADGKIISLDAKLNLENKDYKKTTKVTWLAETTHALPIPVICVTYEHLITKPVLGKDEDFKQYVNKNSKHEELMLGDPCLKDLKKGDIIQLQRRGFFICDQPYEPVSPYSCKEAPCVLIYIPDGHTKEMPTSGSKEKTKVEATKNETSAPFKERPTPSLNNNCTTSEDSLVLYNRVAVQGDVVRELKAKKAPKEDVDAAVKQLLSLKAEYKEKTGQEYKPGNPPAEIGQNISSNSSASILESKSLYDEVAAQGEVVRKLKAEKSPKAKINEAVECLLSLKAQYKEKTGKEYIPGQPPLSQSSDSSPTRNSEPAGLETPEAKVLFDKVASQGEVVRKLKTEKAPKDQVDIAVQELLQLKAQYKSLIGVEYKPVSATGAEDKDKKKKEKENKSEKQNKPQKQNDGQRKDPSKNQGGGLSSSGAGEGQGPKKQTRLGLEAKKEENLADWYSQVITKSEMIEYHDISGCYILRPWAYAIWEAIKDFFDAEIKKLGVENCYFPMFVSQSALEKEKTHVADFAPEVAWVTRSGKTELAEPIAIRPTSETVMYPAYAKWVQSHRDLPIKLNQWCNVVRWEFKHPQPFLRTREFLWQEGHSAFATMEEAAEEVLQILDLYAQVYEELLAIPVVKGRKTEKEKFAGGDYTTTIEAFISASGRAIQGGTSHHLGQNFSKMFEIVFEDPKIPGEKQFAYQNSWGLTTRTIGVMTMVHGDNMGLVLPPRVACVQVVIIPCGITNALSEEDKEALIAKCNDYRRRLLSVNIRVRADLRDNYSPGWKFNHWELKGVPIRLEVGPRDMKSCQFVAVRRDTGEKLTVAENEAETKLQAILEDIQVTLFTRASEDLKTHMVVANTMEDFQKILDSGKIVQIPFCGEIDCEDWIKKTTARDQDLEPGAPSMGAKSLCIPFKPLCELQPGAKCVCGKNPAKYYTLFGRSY
UniProt Q09472, whole entry, looked up: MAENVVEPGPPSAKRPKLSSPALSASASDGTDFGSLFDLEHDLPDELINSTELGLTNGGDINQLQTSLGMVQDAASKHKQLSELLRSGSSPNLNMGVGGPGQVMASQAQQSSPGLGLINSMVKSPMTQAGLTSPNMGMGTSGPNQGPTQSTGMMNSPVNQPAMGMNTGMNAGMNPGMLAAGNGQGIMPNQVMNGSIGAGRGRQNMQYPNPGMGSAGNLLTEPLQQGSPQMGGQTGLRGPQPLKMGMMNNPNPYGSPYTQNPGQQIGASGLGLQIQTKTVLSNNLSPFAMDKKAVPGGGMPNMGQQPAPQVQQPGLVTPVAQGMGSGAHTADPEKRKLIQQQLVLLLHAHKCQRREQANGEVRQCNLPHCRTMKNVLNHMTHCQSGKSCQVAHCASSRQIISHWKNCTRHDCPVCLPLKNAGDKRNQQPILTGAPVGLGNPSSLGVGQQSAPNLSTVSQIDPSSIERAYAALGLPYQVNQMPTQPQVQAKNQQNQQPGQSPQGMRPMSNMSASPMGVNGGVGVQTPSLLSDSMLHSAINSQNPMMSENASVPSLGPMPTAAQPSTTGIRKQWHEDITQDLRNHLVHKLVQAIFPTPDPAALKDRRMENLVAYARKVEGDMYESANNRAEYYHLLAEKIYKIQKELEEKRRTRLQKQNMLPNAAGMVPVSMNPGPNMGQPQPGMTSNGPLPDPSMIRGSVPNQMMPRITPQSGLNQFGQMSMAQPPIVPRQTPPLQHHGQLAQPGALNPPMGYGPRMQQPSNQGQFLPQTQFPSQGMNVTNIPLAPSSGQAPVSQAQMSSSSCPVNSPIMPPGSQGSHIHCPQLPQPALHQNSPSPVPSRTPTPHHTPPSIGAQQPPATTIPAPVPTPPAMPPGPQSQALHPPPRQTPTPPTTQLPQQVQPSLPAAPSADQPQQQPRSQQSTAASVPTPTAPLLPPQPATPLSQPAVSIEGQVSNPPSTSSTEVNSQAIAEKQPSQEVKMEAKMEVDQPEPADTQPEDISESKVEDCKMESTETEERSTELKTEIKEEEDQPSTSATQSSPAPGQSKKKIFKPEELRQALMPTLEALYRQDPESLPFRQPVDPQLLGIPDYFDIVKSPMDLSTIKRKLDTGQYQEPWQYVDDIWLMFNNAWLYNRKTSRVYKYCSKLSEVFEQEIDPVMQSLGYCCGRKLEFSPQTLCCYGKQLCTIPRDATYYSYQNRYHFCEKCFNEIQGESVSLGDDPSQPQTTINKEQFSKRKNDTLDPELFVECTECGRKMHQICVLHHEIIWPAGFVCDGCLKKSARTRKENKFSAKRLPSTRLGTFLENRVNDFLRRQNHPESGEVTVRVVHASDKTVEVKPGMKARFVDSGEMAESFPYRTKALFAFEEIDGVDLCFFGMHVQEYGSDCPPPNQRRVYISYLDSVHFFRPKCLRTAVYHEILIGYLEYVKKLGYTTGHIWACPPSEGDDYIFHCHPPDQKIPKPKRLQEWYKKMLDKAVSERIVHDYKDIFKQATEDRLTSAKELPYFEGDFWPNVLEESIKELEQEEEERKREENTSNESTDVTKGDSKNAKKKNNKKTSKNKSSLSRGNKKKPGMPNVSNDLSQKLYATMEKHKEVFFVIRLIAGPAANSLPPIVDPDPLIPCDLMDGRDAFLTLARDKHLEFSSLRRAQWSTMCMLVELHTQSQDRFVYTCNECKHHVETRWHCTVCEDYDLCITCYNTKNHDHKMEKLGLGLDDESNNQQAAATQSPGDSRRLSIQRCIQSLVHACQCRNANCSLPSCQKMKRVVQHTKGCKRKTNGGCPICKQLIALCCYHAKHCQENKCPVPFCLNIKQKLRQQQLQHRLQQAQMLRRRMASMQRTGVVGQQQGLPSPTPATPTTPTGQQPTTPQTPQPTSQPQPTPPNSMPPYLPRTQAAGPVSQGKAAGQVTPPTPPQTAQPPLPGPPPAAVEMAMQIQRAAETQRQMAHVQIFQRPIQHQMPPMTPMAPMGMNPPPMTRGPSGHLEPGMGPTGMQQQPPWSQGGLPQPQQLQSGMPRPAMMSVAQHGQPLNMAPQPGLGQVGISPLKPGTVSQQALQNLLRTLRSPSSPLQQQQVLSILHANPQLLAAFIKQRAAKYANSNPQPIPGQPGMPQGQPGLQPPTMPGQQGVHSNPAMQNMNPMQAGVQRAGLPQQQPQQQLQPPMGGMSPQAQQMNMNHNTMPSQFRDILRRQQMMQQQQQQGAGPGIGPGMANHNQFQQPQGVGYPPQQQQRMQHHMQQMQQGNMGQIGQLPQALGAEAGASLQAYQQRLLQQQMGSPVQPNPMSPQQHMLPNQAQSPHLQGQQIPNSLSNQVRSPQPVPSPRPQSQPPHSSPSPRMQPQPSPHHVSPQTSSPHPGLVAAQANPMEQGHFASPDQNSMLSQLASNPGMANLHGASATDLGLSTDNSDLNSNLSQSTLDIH
UniProt Q5UCC4: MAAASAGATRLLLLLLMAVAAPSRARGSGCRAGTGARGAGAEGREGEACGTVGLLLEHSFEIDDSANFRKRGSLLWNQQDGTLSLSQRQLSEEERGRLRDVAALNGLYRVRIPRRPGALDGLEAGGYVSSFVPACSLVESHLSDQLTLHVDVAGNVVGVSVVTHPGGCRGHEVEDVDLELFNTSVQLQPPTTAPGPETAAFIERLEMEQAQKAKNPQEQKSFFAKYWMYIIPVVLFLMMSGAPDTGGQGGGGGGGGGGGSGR
UniProt O43432, whole entry, looked up: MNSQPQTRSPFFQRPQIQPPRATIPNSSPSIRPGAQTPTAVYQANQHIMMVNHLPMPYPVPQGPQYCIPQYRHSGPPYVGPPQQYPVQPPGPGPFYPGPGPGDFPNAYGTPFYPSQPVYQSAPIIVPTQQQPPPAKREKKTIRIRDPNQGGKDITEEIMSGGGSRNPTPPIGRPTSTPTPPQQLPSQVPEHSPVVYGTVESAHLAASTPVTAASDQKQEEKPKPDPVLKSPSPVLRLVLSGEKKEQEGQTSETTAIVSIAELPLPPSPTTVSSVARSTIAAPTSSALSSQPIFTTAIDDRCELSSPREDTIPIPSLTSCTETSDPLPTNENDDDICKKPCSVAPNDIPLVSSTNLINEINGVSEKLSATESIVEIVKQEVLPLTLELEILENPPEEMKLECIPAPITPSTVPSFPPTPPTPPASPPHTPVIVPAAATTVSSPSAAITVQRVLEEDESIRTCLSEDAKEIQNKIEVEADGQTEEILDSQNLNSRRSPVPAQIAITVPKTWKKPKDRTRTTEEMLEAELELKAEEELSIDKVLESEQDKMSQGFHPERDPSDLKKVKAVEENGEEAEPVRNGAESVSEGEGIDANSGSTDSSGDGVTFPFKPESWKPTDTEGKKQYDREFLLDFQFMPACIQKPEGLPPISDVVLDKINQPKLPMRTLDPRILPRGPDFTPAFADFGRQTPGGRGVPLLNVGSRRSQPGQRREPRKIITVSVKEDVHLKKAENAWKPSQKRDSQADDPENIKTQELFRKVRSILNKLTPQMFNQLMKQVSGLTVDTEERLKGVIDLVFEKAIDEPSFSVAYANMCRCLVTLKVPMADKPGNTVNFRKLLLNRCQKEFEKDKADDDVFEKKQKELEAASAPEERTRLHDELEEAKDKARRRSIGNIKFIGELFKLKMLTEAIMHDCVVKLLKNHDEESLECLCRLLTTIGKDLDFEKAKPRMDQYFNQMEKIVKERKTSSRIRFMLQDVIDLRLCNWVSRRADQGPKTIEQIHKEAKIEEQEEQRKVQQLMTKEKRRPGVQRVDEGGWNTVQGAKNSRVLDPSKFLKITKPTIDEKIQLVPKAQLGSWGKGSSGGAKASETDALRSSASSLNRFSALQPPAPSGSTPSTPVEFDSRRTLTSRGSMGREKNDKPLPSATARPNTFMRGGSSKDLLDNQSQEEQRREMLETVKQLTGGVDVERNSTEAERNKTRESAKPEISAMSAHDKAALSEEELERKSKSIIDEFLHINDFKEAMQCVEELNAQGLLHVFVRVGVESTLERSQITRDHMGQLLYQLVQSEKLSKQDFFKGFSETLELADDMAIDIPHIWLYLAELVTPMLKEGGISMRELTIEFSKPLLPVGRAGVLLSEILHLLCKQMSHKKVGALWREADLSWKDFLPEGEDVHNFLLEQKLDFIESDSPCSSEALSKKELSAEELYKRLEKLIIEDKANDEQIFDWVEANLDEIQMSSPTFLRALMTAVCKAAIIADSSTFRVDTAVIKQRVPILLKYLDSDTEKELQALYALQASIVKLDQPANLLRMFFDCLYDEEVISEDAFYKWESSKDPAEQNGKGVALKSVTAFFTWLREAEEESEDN
UniProt O75822, whole entry, looked up: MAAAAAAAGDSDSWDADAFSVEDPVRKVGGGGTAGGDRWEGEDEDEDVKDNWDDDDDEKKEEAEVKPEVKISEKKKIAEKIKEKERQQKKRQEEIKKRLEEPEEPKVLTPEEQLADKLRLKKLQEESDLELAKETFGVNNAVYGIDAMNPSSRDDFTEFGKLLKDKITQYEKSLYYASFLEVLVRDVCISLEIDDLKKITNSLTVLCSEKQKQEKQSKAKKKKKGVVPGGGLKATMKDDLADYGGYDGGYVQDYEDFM
UniProt P38919, whole entry, looked up: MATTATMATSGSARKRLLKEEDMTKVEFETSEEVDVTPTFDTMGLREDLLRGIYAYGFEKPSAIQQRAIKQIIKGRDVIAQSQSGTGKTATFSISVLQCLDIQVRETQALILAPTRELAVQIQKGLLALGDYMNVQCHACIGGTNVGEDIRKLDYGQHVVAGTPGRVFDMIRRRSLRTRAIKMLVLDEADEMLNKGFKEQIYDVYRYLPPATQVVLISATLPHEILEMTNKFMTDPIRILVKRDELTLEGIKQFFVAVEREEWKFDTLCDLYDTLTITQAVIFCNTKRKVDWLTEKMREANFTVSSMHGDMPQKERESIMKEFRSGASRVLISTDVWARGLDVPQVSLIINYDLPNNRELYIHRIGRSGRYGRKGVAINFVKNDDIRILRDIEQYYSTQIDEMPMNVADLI

Compound: Cc1cc(ccc1-c1ccccc1)C(=O)N1CCCN(CC1)C(=O)CCl [compound 10]
Test: probe-labelled cysteine peptide fold change vs DMSO (competition) (log2 fold change); higher = less target engagement (more negative = stronger competition)
Details: THP-1, incubation time: 4 h
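Note: competitive profiling in live THP-1 cells: cysteine peptides tagged with an iodoacetamide desthiobiotin (IA-DTB) probe, intensity after compound treatment relative to DMSO-treated cells.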

Target: EPRS_P07814_1309_VACVQVVIIPCGITNALSEEDK (UniProt P07814)
- probe-labelled cysteine peptide fold change (10 µM): -0.161
- probe-labelled cysteine peptide fold change (50 µM): 0.101

Target: ELF2_Q15723_470_IITIPATQLAQCQLQTK (UniProt Q15723)
- probe-labelled cysteine peptide fold change (10 µM): -0.231
- probe-labelled cysteine peptide fold change (50 µM): -0.635

Target: EML3_Q32P44_310_CLAVHPDGVR (UniProt Q32P44)
- probe-labelled cysteine peptide fold change (10 µM): 0.00439
- probe-labelled cysteine peptide fold change (50 µM): 0.218

Target: ENGASE_Q8NFI3_113_LEDGFNVALEPLACR (UniProt Q8NFI3)
- probe-labelled cysteine peptide fold change (10 µM): -0.0961
- probe-labelled cysteine peptide fold change (50 µM): -0.0816

Target: EP300_Q09472_1275_MHQICVLHHEIIWPAGFVCDGCLK (UniProt Q09472)
- probe-labelled cysteine peptide fold change (10 µM): -0.0309
- probe-labelled cysteine peptide fold change (50 µM): 0.13

Target: EPRS_P07814_1301_VACVQVVIIPCGITNALSEEDK (UniProt P07814)
- probe-labelled cysteine peptide fold change (10 µM): -0.0286
- probe-labelled cysteine peptide fold change (50 µM): 0.00582

Target: EP300_Q09472_388_SCQVAHCASSR (UniProt Q09472)
- probe-labelled cysteine peptide fold change (10 µM): 0.012
- probe-labelled cysteine peptide fold change (50 µM): -0.12

Target: EMC10_Q5UCC4_49_EGEACGTVGLLLEHSFEIDDSANFR (UniProt Q5UCC4)
- probe-labelled cysteine peptide fold change (10 µM): 0.187
- probe-labelled cysteine peptide fold change (50 µM): 0.367

Target: EP400_Q96L91_879_EIECFWSNIEQVVEIK (UniProt Q96L91)
- probe-labelled cysteine peptide fold change (10 µM): -0.106
- probe-labelled cysteine peptide fold change (50 µM): 0.0487

Target: EIF4G3_O43432_1471_ALMTAVCK (UniProt O43432)
- probe-labelled cysteine peptide fold change (10 µM): 0.296
- probe-labelled cysteine peptide fold change (50 µM): 0.185

Target: EIF3J_O75822_207_KITNSLTVLCSEK (UniProt O75822)
- probe-labelled cysteine peptide fold change (10 µM): -0.109
- probe-labelled cysteine peptide fold change (50 µM): -0.0404

Target: EIF5_P55010_99_FVLCPECENPETDLHVNPK (UniProt P55010)
- probe-labelled cysteine peptide fold change (10 µM): 0.145
- probe-labelled cysteine peptide fold change (50 µM): -0.191

Target: EML4_Q9HC35_428_TTNEVVLAVEFHPTDANTIITCGK (UniProt Q9HC35)
- probe-labelled cysteine peptide fold change (10 µM): 0.13
- probe-labelled cysteine peptide fold change (50 µM): 0.146

Target: EIF4G1_Q04637_662_LQGINCGPDFTPSFANLGR (UniProt Q04637)
- probe-labelled cysteine peptide fold change (10 µM): -0.232
- probe-labelled cysteine peptide fold change (50 µM): -0.045

Target: EIF3M_Q7L2H7_125_YTVYCSLIK (UniProt Q7L2H7)
- probe-labelled cysteine peptide fold change (10 µM): -0.0368
- probe-labelled cysteine peptide fold change (50 µM): 0.11

Target: EIF4A3_P38919_137_GLLALGDYMNVQCHACIGGTNVGEDIRK (UniProt P38919)
- probe-labelled cysteine peptide fold change (10 µM): 0.154
- probe-labelled cysteine peptide fold change (50 µM): 0.0649

Target: ERAL1_O75616_425_GHVISQIAQEAGHDLMDIFLCDVDIR (UniProt O75616)
- probe-labelled cysteine peptide fold change (10 µM): 0.0685
- probe-labelled cysteine peptide fold change (50 µM): 0.058

Target: ELMSAN1_Q6PJG2_442_AVSTGDCGQVLR (UniProt Q6PJG2)
- probe-labelled cysteine peptide fold change (10 µM): -0.182
- probe-labelled cysteine peptide fold change (50 µM): -0.44

Target: EIF4G3_O43432_930_NHDEESLECLCR (UniProt O43432)
- probe-labelled cysteine peptide fold change (10 µM): 0.249
- probe-labelled cysteine peptide fold change (50 µM): 0.601
